From article PMC12557800 come the findings set out here.

These are yes or no findings as the source states them, for the method shown. Binding seen in cells or lysates may run through a third protein. Some entries that bind do so weakly or less than the wild type. Tags and fused reporters may be left off the sequences shown.

Experiment [1] concerns the target T1, mouse full-length SLC9C1-PA (mouse) (UniProt Q6UJY2).
T1 sequence: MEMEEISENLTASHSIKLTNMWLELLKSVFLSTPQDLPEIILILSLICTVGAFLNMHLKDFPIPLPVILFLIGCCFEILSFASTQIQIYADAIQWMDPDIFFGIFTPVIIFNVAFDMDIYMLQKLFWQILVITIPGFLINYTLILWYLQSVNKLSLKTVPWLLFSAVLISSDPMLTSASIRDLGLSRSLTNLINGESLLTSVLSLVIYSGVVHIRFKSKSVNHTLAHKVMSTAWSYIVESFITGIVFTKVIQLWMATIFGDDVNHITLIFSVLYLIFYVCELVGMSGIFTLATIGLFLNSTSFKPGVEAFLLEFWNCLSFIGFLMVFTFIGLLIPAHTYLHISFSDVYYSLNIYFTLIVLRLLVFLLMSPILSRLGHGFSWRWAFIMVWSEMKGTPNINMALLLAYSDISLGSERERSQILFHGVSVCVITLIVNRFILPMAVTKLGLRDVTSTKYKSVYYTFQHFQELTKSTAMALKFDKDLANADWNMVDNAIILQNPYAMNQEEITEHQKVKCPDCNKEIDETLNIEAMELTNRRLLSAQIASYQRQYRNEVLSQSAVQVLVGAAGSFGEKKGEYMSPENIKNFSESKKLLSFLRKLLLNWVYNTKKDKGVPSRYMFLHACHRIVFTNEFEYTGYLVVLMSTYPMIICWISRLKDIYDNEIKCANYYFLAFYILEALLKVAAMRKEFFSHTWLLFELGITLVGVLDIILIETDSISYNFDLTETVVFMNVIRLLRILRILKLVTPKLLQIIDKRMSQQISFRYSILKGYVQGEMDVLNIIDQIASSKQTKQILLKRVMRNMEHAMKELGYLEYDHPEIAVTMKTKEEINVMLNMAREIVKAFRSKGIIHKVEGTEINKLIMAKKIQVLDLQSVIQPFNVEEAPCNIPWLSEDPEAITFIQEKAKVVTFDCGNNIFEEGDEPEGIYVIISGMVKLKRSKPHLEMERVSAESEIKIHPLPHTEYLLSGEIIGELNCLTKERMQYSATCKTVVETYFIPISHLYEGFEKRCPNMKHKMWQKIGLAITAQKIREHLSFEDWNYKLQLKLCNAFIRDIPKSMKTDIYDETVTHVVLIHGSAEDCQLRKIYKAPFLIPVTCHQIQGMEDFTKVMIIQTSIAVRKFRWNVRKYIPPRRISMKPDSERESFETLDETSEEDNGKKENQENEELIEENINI
The experiment can be described thus: co-IP; HEK293T cell lysates coexpressing mouse TMEM217-3xFLAG and mouse SLC9C1-PA (full length or truncated); IP with anti-FLAG or anti-PA antibodies, immunoblot with FLAG and PA antibodies. For orientation: In western blotting, separated proteins are transferred to a membrane and probed.

In experiment [2] the target is T2, TMEM217-3xFLAG (mouse, transgene in Tmem217-3xFLAG Tg mice) (mouse) (UniProt Q14AF1).
T2 sequence: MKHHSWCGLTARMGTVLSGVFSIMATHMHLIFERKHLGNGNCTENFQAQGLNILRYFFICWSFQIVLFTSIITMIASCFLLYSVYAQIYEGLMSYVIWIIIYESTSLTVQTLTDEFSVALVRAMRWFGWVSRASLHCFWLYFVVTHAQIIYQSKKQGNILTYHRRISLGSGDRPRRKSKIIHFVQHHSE
The experiment can be described thus: co-IP; FLAG IP of testis samples, immunoblot for SLC9C1 and TMEM217-3xFLAG.

Experiment [3] addresses T3, human SLC9C1-3xFLAG (human) (UniProt Q4G0N8).
T3 sequence: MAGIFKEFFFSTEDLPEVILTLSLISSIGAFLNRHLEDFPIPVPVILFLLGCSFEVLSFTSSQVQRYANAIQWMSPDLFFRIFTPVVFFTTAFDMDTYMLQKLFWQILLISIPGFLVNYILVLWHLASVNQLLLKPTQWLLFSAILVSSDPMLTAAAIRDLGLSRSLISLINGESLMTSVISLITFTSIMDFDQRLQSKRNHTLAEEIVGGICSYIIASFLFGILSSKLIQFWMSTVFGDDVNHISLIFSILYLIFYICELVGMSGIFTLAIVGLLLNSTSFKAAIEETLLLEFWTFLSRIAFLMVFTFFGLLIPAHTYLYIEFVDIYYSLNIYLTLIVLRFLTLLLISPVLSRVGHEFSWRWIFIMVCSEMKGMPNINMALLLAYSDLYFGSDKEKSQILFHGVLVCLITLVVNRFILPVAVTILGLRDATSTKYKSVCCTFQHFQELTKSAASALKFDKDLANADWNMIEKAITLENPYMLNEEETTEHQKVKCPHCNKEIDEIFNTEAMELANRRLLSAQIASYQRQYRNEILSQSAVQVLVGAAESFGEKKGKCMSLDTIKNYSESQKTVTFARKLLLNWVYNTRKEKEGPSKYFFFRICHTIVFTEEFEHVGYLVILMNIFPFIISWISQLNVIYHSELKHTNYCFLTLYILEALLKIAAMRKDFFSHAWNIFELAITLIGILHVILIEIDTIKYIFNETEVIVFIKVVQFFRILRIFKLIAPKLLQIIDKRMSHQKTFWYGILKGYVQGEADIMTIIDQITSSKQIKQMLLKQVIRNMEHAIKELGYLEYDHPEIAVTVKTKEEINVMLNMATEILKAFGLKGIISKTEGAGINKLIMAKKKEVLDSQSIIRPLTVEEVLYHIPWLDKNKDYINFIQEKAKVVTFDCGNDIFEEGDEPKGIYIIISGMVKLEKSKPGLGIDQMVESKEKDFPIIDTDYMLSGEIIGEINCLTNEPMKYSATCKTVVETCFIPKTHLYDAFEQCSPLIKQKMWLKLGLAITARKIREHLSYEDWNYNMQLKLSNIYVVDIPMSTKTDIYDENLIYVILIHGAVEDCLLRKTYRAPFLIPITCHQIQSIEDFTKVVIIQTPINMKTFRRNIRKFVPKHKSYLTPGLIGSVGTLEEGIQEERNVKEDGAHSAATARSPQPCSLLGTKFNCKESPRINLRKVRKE
Kind of experiment: co-IP; human TMEM217-PA and human SLC9C1-3xFLAG constructs; cells and antibodies not told in the main text (SI Appendix, Fig. S4C).

B1: mouse TMEM217-3xFLAG expressed in HEK293T cells (protein, UniProt Q14AF1 1-189)
chain: T2 sequence
For the molecule B1, the binding result in experiment [1] was “binds”.

B2: SLC9C1 (sperm-specific Na+/H+ exchanger), endogenous in mouse testis (protein, UniProt Q6UJY2 1-1175)
chain: T1 sequence
Take B2: the binding result in experiment [2] is listed as “binds”.

B3: human TMEM217-PA (protein, UniProt Q8N7C4 1-229)
chain: MKQQQWCGMTAKMGTVLSGVFTIMAVDMYLIFEQKHLGNGSCTEITPKYRGASNIINNFIICWSFKIVLFLSFITILISCFLLYSVYAQIFRGLVIYIVWIFFYETANVVIQILTNNDFDIKEVRIMRWFGLVSRTVMHCFWMFFVINYAHITYKNRSQGNIISYKRRISTAEILHSRNKRLSISSGFSGSHLESQYFERQSFHTSIFTCLSPVPSSAPSTCRYTIDVC
For the molecule B3, in experiment [3], the binding result is “binds”.
